Reference: patent US9593149B2 (Novo Nordisk A/S, priority 2014, dated 2017)

Assays:
[1] = general procedure: Fmoc solid-phase peptide synthesis; PAL AM resin; DIC/HOAt or DIC/Oxyma; details: whole synthesis, scale 400 mg resin (0.61 mmol/g)
[2] = general procedure: Fmoc solid-phase peptide synthesis; Tentagel S RAM (about 0.25 mmol/g) or PAL-ChemMatrix (about 0.43 mmol/g) or PAL AM (0.5-0.75 mmol/g); DIC/HOAt or DIC/Oxyma; details: whole synthesis
[3] = general procedure: Fmoc solid-phase peptide synthesis; PAL ChemMatrix resin; DIC/HOAt or DIC/Oxyma; details: whole synthesis, scale 600 mg resin (0.43 mmol/g)

Substance	crude mass [1] [mg]	crude purity (method not given) [2]	final purity (method not given) [2] [%]	crude mass [3] [mg]
H-EASELSTAALGRLSAELHELATLPRTETGPESP-NH2	800	about 50%	>90	
[N-terminal(C18 diacid)]mimylin		about 55%	>90	700
